Assay results from PubChem BioAssay AID2283160 (EPA ToxCast).
Only a part is listed here, and it is no random draw. Results filed as inconclusive are left out. Active and inactive are the calls of the source. Rule for the calls: active = hit-call score of the fitted dose curve at least 0.9, where 1 is the maximum; inconclusive = response in the unintended direction; inactive = score below 0.9.

Amino acid sequences for entries named in this document (tags omitted).
UniProt P22607, whole entry, looked up: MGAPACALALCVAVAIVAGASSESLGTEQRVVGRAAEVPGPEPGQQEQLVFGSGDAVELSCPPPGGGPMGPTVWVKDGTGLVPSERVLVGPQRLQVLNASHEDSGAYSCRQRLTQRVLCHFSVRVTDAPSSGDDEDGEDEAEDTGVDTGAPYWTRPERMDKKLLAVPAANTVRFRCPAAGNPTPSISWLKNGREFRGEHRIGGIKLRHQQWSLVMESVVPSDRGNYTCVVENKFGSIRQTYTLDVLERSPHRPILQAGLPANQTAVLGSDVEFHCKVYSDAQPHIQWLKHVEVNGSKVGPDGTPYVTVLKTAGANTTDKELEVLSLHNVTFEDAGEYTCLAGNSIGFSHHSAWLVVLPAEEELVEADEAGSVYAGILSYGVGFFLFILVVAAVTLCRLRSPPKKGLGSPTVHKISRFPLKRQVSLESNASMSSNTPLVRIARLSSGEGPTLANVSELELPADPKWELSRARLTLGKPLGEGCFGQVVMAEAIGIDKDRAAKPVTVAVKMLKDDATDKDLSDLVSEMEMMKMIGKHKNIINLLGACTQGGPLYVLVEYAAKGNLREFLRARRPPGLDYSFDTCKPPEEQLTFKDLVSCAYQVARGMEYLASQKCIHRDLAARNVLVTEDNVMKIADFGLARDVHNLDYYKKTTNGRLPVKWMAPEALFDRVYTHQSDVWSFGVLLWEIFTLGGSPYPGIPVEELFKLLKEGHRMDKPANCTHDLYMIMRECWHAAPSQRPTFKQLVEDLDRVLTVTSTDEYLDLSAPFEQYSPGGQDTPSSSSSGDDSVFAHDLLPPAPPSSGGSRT

Target: human Fibroblast Growth Factor Receptor 3 (FGFR3), FGFR3 (gene 2261) (UniProt P22607)
Assay: NVS_ENZ_hFGFR3: NovaScreen (NVS) Enzymatic Assay for human Fibroblast Growth Factor Receptor 3 (FGFR3)
Description: NVS_ENZ_hFGFR3 is a biochemical, single-readout assay that uses extracted gene-proteins in a cell-free assay. Measurements were taken 1 hour after chemical dosing in a 384-well plate.NVS_ENZ_hFGFR3 is one of one assay component(s) measured or calculated from the NVS_ENZ_hFGFR3 assay. It is designed to make measurements of enzyme activity, a form of enzyme reporter, as detected with fluorescence intensity signals by Fluorescence and electrophoretic mobility shift technology.Data from the assay component NVS_ENZ_hFGFR3 was analyzed into 1 assay endpoint. This assay endpoint, NVS_ENZ_hFGFR3, was analyzed in the positive analysis fitting direction relative to DMSO as the negative control and baseline of activity. Using a type of enzyme reporter, loss-of-signal activity can be used to understand changes in the enzymatic activity as they relate to the gene FGFR3. Furthermore, this assay endpoint can be referred to as a primary readout, because this assay has produced multiple assay endpoints where this one serves a enzymatic activity function. To generalize the intended target to other relatable targets, this assay endpoint is annotated to the kinase intended target family, where the subfamily is receptor tyrosine kinase. […]

**Q.** For `O=S(=O)(O)C(F)(F)C(F)(F)C(F)(F)C(F)(F)C(F)(F)C(F)(F)C(F)(F)C(F)(F)F`, which AC50 is on record?
**A.** active: 38.4 µM
